± gives the standard deviation. This is a selection; strong and weak results do not stand in their true shares. Many entries were measured with a wide error.
These sequences were tested on MILI (PIWIL2) piRISC loaded with piRNA #1 (26 nt) (assay: pre-steady-state target cleavage rate (min^-1); MIWI and MILI are mouse PIWI proteins and EfPiwi is from a freshwater sponge; tags in brackets are library labels; higher = faster piRNA-guided slicing of the target). Details: guide: piRNA #1 5'p-UGAGGUAGUAGGUUGUAUAGUAUCCA; auxiliary factor: 500 nM mouse GTSF1.
Procedure, shortened: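 The pre-steady-state cleavage rate was calculated from a burst-and-steady-state fit. Data came from Cleave-'n-Seq, in which […] transcribed, DNA-blocked target RNA library was mixed with 1 nM active affinity-purified piRISC carrying one synthetic guide, with or without 500 nM GTSF1 partner protein, in HEPES–potassium acetate buffer at 33 °C for 0–8 or 0–960 min. Uncleaved targets were sequenced and normalised to depth and to weakly complementary targets, three trials were pooled, and k3 was capped at 0.0001 min^-1.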
With GGAGACCUAUGAUAACAACCUACUCACCUCA the “pre-steady-state target cleavage rate” value was 0.00465 ± 0.0027. GGAGACCUAUGAUAACAUCCUACUUCCUCA was tested, and the “pre-steady-state target cleavage rate” value was 0.00421 ± 0.0027. With GGAGACCUAUGAUAUCAACCUUCUACGUCA the “pre-steady-state target cleavage rate” value was 0.000156 ± 0.016. GGAGACCUAUGAAUACAACCUACAACCACA was tested, and the “pre-steady-state target cleavage rate” value was 0.00251 ± 0.0041. For GGAGACCUAACUAUAAACCUACUACCUCA, the “pre-steady-state target cleavage rate” value was 0.00232 ± 0.0058. GGAGACCUAUGAAUACUAACCUACUACCUCA was tested, and the “pre-steady-state target cleavage rate” value was 0.000865 ± 0.0091. In the case of GGAGACCUAUGAAUACAACGAUCUACCUCA, the “pre-steady-state target cleavage rate” value is reported as 0.000763 ± 0.006. For GGAGACCUAUGAUAUGUUCCAACUUCCUCA, the “pre-steady-state target cleavage rate” value was 0.000109 ± 0.024. In the case of GGAGUGCAUACUAUACAACGUACUACCUCA, the “pre-steady-state target cleavage rate” value is reported as 0.0301 ± 0.0044. For GGAGACCUAUGUAUUCAACCUACUUCCUCA, the “pre-steady-state target cleavage rate” value was 0.00515 ± 0.0026. In the case of GGAGACCUAUGAUAUGUUGCCACUACCUCA, the “pre-steady-state target cleavage rate” value is reported as 0.000826 ± 0.0077. GGAGACCUAUGAUUUCAACCUACUACCUGA was tested, and the “pre-steady-state target cleavage rate” value was 0.000897 ± 0.0055. In the case of GGAGACCUAUGAAUACAACCACUACCUCA, the “pre-steady-state target cleavage rate” value is reported as 0.000606 ± 0.011. In the case of GGAGACCUAUGAUAUCUACGUACUACCUCA, the “pre-steady-state target cleavage rate” value is reported as 0.000255 ± 0.008. With GGAGACCUAUCUAUUCUACCUACUACCUCA the “pre-steady-state target cleavage rate” value was 0.0569 ± 0.0086. GGAGACCUAUGAUAACAACGUACAACCUCA was tested, and the “pre-steady-state target cleavage rate” value was 0.00292 ± 0.0034. In the case of GGAGACCUAACUAUACAAGCCUACUACCUCA, the “pre-steady-state target cleavage rate” value is reported as 0.000757 ± 0.013. With GGAGACCUAUGAUAUCAACGUACUACCACA the “pre-steady-state target cleavage rate” value was 0.000773 ± 0.0094. In the case of GGAGACCUAUGAUAUCAACCUACUACCUA, the “pre-steady-state target cleavage rate” value is reported as 0.000794 ± 0.0061. In the case of GGAGUGGAUACUAUACAACGCUACUACCUCA, the “pre-steady-state target cleavage rate” value is reported as 0.0044 ± 0.0029. With GGAGACCUAUGAUAUGUUGCAACAACCUCA the “pre-steady-state target cleavage rate” value was 0.000355 ± 0.019. For GGAGACCUAUCUAAUGAACCUACUACCUCA, the “pre-steady-state target cleavage rate” value was 0.00248 ± 0.0028. GGAGACCUAUCUAUACAACCCUACUACCUCA was tested, and the “pre-steady-state target cleavage rate” value was 0.0014 ± 0.0054. In the case of GGAGACCUAUGAUUACCACCUACUACCUCA, the “pre-steady-state target cleavage rate” value is reported as 0.00294 ± 0.0032.
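Note: 1 nM active piRISC with 0.1 nM target library at 33 °C single turnover.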
